The text below walks through data of PubChem BioAssay AID248 (DTP/NCI, 2004).

The experiment deals with L1210 leukemia ip in BDF1 mice, survival T/C. The experiment is described as follows: NCI In Vivo Anticancer Drug Screen. Data for tumor model L1210 Leukemia (intraperitoneal) in B6D2F1 (BDF1) mice. The note with it: higher T/C = longer survival.
Where [1] appears, read: T/C endpoint: mean survival time, dose: 200.0 mg/kg/injection, schedule: Q04DX003 (ip), vehicle: Klucel (hydroxypropylcellulose) (HPC).
[2] abbreviates: T/C endpoint: mean survival time, dose: 400.0 mg/kg/injection, schedule: Q04DX003 (ip), vehicle: Klucel (hydroxypropylcellulose) (HPC).
[3] abbreviates: T/C endpoint: mean survival time, dose: 100.0 mg/kg/injection, schedule: Q01DX009 (ip), vehicle: saline with Tween-80.
Where [4] appears, read: T/C endpoint: mean survival time, dose: 400.0 mg/kg/injection, schedule: Q04DX003 (ip), vehicle: saline.
[5] abbreviates: T/C endpoint: mean survival time, dose: 200.0 mg/kg/injection, schedule: Q01DX001 (ip), vehicle: saline.
Setting [6] is: T/C endpoint: mean survival time, dose: 400.0 mg/kg/injection, schedule: Q01DX001 (ip), vehicle: saline.

The list does not hold the whole screen: it is rich in T/C values a quarter to a half above the control, in often repeated tests (any T/C) and in doses without a T/C. Further doses and runs are listed elsewhere. T/C is the treated group as % of the vehicle group. Some doses have a count of surviving animals in place of a T/C: the source holds a T/C of zero for them, seemingly a mark for toxic or unscored doses. Some doses without a T/C left all or most animals alive at the check, yet need not have been tolerated: survival well below the control is almost never listed, so the zero probably covers shortened survival too. Survivors were counted at the toxicity check, usually on the fifth day, unless a day is given; later deaths do not show. Schedules are NCI's codes, taken here to give the interval after Q, in days (D) or hours (H), and the number of doses after X. Some schedule codes hold Z or #, which are not explained here. Where survival is the endpoint, this PubChem deposit counts one and a half times the control or more as active, and values a quarter to a half above the control carry no call in these data; other NCI protocols may use other cut-offs. Some entries hold several experiments; the results are listed from low to high. Some T/C values carry the count of animals alive at the toxicity check (mostly the fifth day); without a count, all were alive then.

In the case of `CN=C(N)c1ccc(NC(=O)/C=C\c2ccc(C(=O)Nc3ccc(C(N)=NC)cc3)cc2)cc1`, the T/C runs as follows: (T/C endpoint: mean survival time, dose: 15.0 mg/kg/injection, schedule: Q01DX Z (ip), vehicle: saline) 129 and 147 % of control; (T/C endpoint: mean survival time, dose: 30.0 mg/kg/injection, schedule: Q01DX Z (ip), vehicle: saline) 149 % of control [5 of 6 alive]; (T/C endpoint: mean survival time, dose: 240.0 mg/kg/injection, schedule: Q01DX Z (ip), vehicle: saline) 134 % of control.
`NC(=O)c1ccc([N+](=O)[O-])s1`: the survivor count runs as follows: under setting [1], 0 of 6; under setting [2], 0 of 6.
`C/C=C\C(=O)N(CC)C(=NCC)c1ccc(NC(=O)c2ccc(C(=O)Nc3ccc(C(=NCC)N(CC)C(=O)/C=C/C)cc3)cc2)cc1`: the T/C runs as follows: (T/C endpoint: mean survival time, dose: 3.12 mg/kg/injection, schedule: Q01DX015 (ip), vehicle: methylcellulose (MC)) 136 % of control; (T/C endpoint: mean survival time, dose: 12.5 mg/kg/injection, schedule: Q01DX015 (ip), vehicle: methylcellulose (MC)) 129 % of control [5 of 6 alive]. The survivor count reads like this: (T/C endpoint: mean survival time, dose: 25.0 mg/kg/injection, schedule: Q01DX015 (ip), vehicle: methylcellulose (MC)) 0 of 6; (T/C endpoint: mean survival time, dose: 50.0 mg/kg/injection, schedule: Q01DX015 (ip), vehicle: methylcellulose (MC)) 0 of 6; (T/C endpoint: mean survival time, dose: 100.0 mg/kg/injection, schedule: Q01DX015 (ip), vehicle: methylcellulose (MC)) 0 of 6; (T/C endpoint: mean survival time, dose: 200.0 mg/kg/injection, schedule: Q01DX015 (ip), vehicle: methylcellulose (MC)) 0 of 6; (T/C endpoint: mean survival time, dose: 400.0 mg/kg/injection, schedule: Q01DX015 (ip), vehicle: methylcellulose (MC)) 0 of 6.
As to `Cc1c2ccccc2nc(CNC2CCCCC2)[n+]1[O-]`, the survivor count runs as follows: (T/C endpoint: mean survival time, dose: 100.0 mg/kg/injection, schedule: Q01DX001 (ip), vehicle: acetone) 0 of 6; (T/C endpoint: mean survival time, dose: 200.0 mg/kg/injection, schedule: Q01DX001 (ip), vehicle: acetone) 0 of 6; (T/C endpoint: mean survival time, dose: 400.0 mg/kg/injection, schedule: Q01DX001 (ip), vehicle: acetone) 0 of 6.
`[N-]=[N+]=C1C(=O)NC(=O)N2C3CC(O)C(COC12)O3` (stereo unspecified): the T/C was 125 % of control (T/C endpoint: mean survival time, dose: 200.0 mg/kg/injection, schedule: Q01DX Z (ip), vehicle: saline); 125 % of control (T/C endpoint: mean survival time, dose: 300.0 mg/kg/injection, schedule: Q01DX Z (ip), vehicle: saline); 125 and 139 % of control (T/C endpoint: mean survival time, dose: 450.0 mg/kg/injection, schedule: Q01DX Z (ip), vehicle: saline). For the same compound, the survivor count reads like this: (T/C endpoint: mean survival time, dose: 300.0 mg/kg/injection, schedule: Q01DX Z (ip), vehicle: carboxymethylcellulose (CMC)) 3 of 6; (T/C endpoint: mean survival time, dose: 400.0 mg/kg/injection, schedule: Q01DX009 (ip), vehicle: saline) 5 of 6; (T/C endpoint: mean survival time, dose: 450.0 mg/kg/injection, schedule: Q01DX Z (ip), vehicle: carboxymethylcellulose (CMC)) 0 of 6; (T/C endpoint: mean survival time, dose: 675.0 mg/kg/injection, schedule: Q01DX Z (ip), vehicle: carboxymethylcellulose (CMC)) 0 of 6.
Regarding `O=c1oc(Cl)cc2oc(=O)n(-c3ccccc3)c(=O)c12`, the survivor count reads like this: (T/C endpoint: mean survival time, dose: 50.0 mg/kg/injection, schedule: Q01DX009 (ip), vehicle: saline with Tween-80) 3 of 3; under setting [3], 0 of 3; (T/C endpoint: mean survival time, dose: 200.0 mg/kg/injection, schedule: Q04DX002 (ip), vehicle: saline with Tween-80) 1 of 3; (T/C endpoint: mean survival time, dose: 400.0 mg/kg/injection, schedule: Q04DX002 (ip), vehicle: saline with Tween-80) 0 of 3.
As for `CC1(C)CCC(C)(C)C(=O)C1=O`, the survivor count runs as follows: (T/C endpoint: mean survival time, dose: 80.0 mg/kg/injection, schedule: Q01DX001 (ip), vehicle: Klucel (hydroxypropylcellulose) (HPC)) 2 of 6; (T/C endpoint: mean survival time, dose: 100.0 mg/kg/injection, schedule: Q01DX001 (ip), vehicle: Klucel (hydroxypropylcellulose) (HPC)) 1 of 6; (T/C endpoint: mean survival time, dose: 200.0 mg/kg/injection, schedule: Q01DX001 (ip), vehicle: Klucel (hydroxypropylcellulose) (HPC)) 0 of 6; (T/C endpoint: mean survival time, dose: 400.0 mg/kg/injection, schedule: Q01DX001 (ip), vehicle: Klucel (hydroxypropylcellulose) (HPC)) 0 of 6.
On to `Ic1ccc(NC2=NCCN2)c2ccccc12`, for which the survivor count under setting [1] is reported as 1 of 6 and the survivor count under setting [2] is on record as 0 of 6.
As for `Oc1ccc(C2(c3ccc(O)cc3)CCCCC2)cc1`, the survivor count (T/C endpoint: mean survival time, dose: 400.0 mg/kg/injection, schedule: Q01DX009 (ip), vehicle: saline with Tween-80) is reported as 3 of 6.
As to `O=C(CCC[n+]1ccccc1)CC(O)(C(F)(F)F)C(F)(F)F`, under setting [4], the survivor count was 0 of 6.
Regarding `O=S(=O)(O)c1ccc2c(ccc3ccccc32)c1`, the survivor count was 3 of 6 (T/C endpoint: mean survival time, dose: 150.0 mg/kg/injection, schedule: Q01DX001 (ip), vehicle: saline) and 3 of 6 (T/C endpoint: mean survival time, dose: 300.0 mg/kg/injection, schedule: Q01DX001 (ip), vehicle: saline).
Turning to `COC1C(=O)CCC2(CO2)C1(O)C1(C)OC1CCC(C)C` (stereo unspecified), the survivor count (T/C endpoint: mean survival time, dose: 400.0 mg/kg/injection, schedule: Q01DX009 (ip), vehicle: acetone) was 1 of 6.
Turning to `N=C(N)c1ccc(C(=O)Oc2ccc([N+](=O)[O-])cc2)cc1`, the survivor count by setting is: under setting [3], 6 of 6; (T/C endpoint: mean survival time, dose: 200.0 mg/kg/injection, schedule: Q04DX003 (ip), vehicle: saline with Tween-80) 2 of 6; (T/C endpoint: mean survival time, dose: 400.0 mg/kg/injection, schedule: Q04DX003 (ip), vehicle: saline with Tween-80) 1 of 6.
For the compound `C=CC1OC2OC(C)(C)OC2C1O` (stereo unspecified), the survivor count is on record as 0 of 4 (T/C endpoint: mean survival time, dose: 80.0 mg/kg/injection, schedule: Q01DX001 (ip), vehicle: saline); 1 of 4 (T/C endpoint: mean survival time, dose: 100.0 mg/kg/injection, schedule: Q01DX001 (ip), vehicle: saline); 0 of 4 under setting [5]; 0 of 4 under setting [6]. For the same compound, the T/C (T/C endpoint: mean survival time, dose: 100.0 mg/kg/injection, schedule: Q01DX001 (ip), vehicle: steroid suspending solution) was 125 % of control.
On to `CN(C)C(CC(=O)c1ccccc1)C(=O)O` (stereo unspecified), for which, under setting [4], the survivor count is reported as 0 of 6.
For `CN(C)/N=N/c1[nH]ncc1C(N)=O`, the T/C (T/C endpoint: mean survival time, dose: 65.0 mg/kg/injection, schedule: Q01DX009 (ip), vehicle: saline) was 142 % of control; the T/C (T/C endpoint: mean survival time, dose: 178.0 mg/kg/injection, schedule: Q01DX001 (ip), vehicle: saline) was 126 % of control [5 of 6 alive]; the T/C (T/C endpoint: mean survival time, dose: 180.0 mg/kg/injection, schedule: Q01DX009 (ip), vehicle: saline) is 134 % of control; the T/C under setting [5] was 125 % of control; the T/C (T/C endpoint: mean survival time, dose: 267.0 mg/kg/injection, schedule: Q01DX001 (ip), vehicle: saline) is 142 % of control; the T/C under setting [6] was 136 and 143 % of control. In addition, the T/C was 133 % of control (T/C endpoint: median survival time, dose: 25.0 mg/kg/injection, schedule: Q01DX009 (ip), vehicle: saline); 144 % of control (T/C endpoint: median survival time, dose: 50.0 mg/kg/injection, schedule: Q01DX009 (ip), vehicle: saline); 144 % of control (T/C endpoint: median survival time, dose: 100.0 mg/kg/injection, schedule: Q01DX009 (ip), vehicle: saline); 127 % of control (T/C endpoint: median survival time, dose: 200.0 mg/kg/injection, schedule: Q01DX009 (ip), vehicle: saline).
